Results reported in PMC4322367.
No constants are given. Whether binding was seen depends on the method and setting. For some assays here: In cells and extracts the contact can be indirect. Some entries that bind do so weakly or less than the wild type. For some assays here: Sequences can lack the tags named with a protein.

The chains behind the UniProt entries cited, without tags or fusion partners.
UniProt Q96GD4: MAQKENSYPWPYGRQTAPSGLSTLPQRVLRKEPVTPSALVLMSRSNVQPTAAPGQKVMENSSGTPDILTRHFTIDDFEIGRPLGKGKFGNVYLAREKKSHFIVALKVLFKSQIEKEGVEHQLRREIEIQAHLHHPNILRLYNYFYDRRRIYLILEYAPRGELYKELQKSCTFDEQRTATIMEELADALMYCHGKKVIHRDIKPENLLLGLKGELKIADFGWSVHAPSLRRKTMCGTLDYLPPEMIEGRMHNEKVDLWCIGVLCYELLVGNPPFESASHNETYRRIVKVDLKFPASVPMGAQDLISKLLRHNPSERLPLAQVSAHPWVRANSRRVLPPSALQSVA

Columns and labels:
GST-Ataxin-10 (human) [1] = target: T1, GST-Ataxin-10 (human) (UniProt Q9UBB4); experiment: pull-down; GST-Ataxin-10 and His-Aurora B, both bacterially expressed, incubated together; GST pull-down; both purified
T1 sequence: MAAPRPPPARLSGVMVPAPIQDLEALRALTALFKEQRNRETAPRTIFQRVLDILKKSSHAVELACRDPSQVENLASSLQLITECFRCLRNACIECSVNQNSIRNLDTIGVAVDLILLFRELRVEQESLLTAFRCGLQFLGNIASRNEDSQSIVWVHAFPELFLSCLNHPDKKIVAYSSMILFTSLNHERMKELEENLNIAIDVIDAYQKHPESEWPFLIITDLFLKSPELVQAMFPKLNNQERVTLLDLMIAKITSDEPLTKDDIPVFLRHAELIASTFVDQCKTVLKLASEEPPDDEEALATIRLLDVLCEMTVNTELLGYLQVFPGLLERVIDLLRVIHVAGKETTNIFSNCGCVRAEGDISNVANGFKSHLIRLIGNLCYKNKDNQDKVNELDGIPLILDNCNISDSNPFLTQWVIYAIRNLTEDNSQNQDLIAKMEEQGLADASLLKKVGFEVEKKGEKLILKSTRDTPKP

GST-Ataxin-10 (human) [2] = target: T1, GST-Ataxin-10 (human); experiment: pull-down; bacterially purified GST-Ataxin-10 incubated with HA-Aurora B transfected in HeLa cells; only the target purified
FLAG-Ataxin-10 (human) [3] = target: T2, FLAG-Ataxin-10 (human) (UniProt Q9UBB4); experiment: co-IP; HeLa cells transfected with FLAG-Ataxin-10 and HA-Aurora B; IP with anti-FLAG antibodies (Fig. 1B) and reciprocal IP (Fig. 1C); cells treated or untreated with nocodazole (100 ng/ml, 16 hours), with which the interaction weakened markedly
T2 sequence: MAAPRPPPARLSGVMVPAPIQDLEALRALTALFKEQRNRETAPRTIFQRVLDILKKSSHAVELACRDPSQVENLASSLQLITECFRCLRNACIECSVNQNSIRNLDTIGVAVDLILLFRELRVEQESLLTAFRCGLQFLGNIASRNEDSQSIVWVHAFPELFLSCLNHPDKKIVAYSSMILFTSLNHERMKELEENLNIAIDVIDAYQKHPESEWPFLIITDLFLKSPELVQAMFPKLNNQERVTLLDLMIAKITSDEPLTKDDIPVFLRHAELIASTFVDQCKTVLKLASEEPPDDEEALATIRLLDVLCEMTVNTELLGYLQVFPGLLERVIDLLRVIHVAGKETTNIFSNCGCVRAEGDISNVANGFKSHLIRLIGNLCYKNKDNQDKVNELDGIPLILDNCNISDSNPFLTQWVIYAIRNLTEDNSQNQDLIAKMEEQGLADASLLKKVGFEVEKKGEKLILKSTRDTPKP

FLAG-Ataxin-10 (human) [4] = target: T2, FLAG-Ataxin-10 (human); experiment: co-IP; HeLa cells transfected with FLAG-Ataxin-10-WT or FLAG-Ataxin-10-S12A together with HA-Plk1; blots quantified
GST-Ataxin-10 (human) [5] = target: T1, GST-Ataxin-10 (human); experiment: pull-down; GST-Ataxin-10 or GST-Ataxin-10-S12A incubated with His-Plk1; GST pull-down; blots quantified
[6] = target: endogenous Aurora B (human (endogenous in HeLa)) (UniProt Q96GD4); experiment: co-IP; endogenous proteins; Aurora B immunoprecipitates blotted with anti-Ataxin-10 antibodies; IgG immunoprecipitates as negative controls
GST-Aurora B = GST-Aurora B (UniProt Q96GD4); experiment: pull-down; bacterially expressed, purified GST-Aurora B incubated with lysates from HeLa cells transfected with FLAG-Ataxin-10; only the target purified
HA-Aurora B = HA-Aurora B (UniProt Q96GD4); experiment: co-IP; HeLa cells transfected with FLAG-Ataxin-10 and HA-Aurora B; IP with anti-FLAG antibodies (Fig. 1B) and reciprocal IP (Fig. 1C); cells treated or untreated with nocodazole (100 ng/ml, 16 hours), with which the interaction weakened markedly

Question: Which binding (GST-Ataxin-10 (human) [1]) does the source give for “His-Aurora B (from UniProt Q96GD4 1-344) (enzyme)” here?
Answer: binds

Question: Which binding (GST-Ataxin-10 (human) [2]) does the source give for “HA-Aurora B (from UniProt Q96GD4 1-344) (enzyme)” here?
Answer: binds

Question: And the binding (FLAG-Ataxin-10 (human) [3])?
Answer: binds

Question: How did the binding (FLAG-Ataxin-10 (human) [4]) turn out when “HA-Plk1 (from UniProt P53350 1-603) (enzyme)” was run?
Answer: binds

Question: For “His-Plk1 (from UniProt P53350 1-603) (enzyme)”, which binding (GST-Ataxin-10 (human) [5]) is on record?
Answer: binds

B1: endogenous Ataxin-10 (protein, UniProt Q9UBB4 1-475)
chain: MAAPRPPPARLSGVMVPAPIQDLEALRALTALFKEQRNRETAPRTIFQRVLDILKKSSHAVELACRDPSQVENLASSLQLITECFRCLRNACIECSVNQNSIRNLDTIGVAVDLILLFRELRVEQESLLTAFRCGLQFLGNIASRNEDSQSIVWVHAFPELFLSCLNHPDKKIVAYSSMILFTSLNHERMKELEENLNIAIDVIDAYQKHPESEWPFLIITDLFLKSPELVQAMFPKLNNQERVTLLDLMIAKITSDEPLTKDDIPVFLRHAELIASTFVDQCKTVLKLASEEPPDDEEALATIRLLDVLCEMTVNTELLGYLQVFPGLLERVIDLLRVIHVAGKETTNIFSNCGCVRAEGDISNVANGFKSHLIRLIGNLCYKNKDNQDKVNELDGIPLILDNCNISDSNPFLTQWVIYAIRNLTEDNSQNQDLIAKMEEQGLADASLLKKVGFEVEKKGEKLILKSTRDTPKP
Question: B1 was tested. Which binding [6] did it give?
Answer: binds

B2: FLAG-Ataxin-10 (protein, UniProt Q9UBB4 1-475)
chain: MAAPRPPPARLSGVMVPAPIQDLEALRALTALFKEQRNRETAPRTIFQRVLDILKKSSHAVELACRDPSQVENLASSLQLITECFRCLRNACIECSVNQNSIRNLDTIGVAVDLILLFRELRVEQESLLTAFRCGLQFLGNIASRNEDSQSIVWVHAFPELFLSCLNHPDKKIVAYSSMILFTSLNHERMKELEENLNIAIDVIDAYQKHPESEWPFLIITDLFLKSPELVQAMFPKLNNQERVTLLDLMIAKITSDEPLTKDDIPVFLRHAELIASTFVDQCKTVLKLASEEPPDDEEALATIRLLDVLCEMTVNTELLGYLQVFPGLLERVIDLLRVIHVAGKETTNIFSNCGCVRAEGDISNVANGFKSHLIRLIGNLCYKNKDNQDKVNELDGIPLILDNCNISDSNPFLTQWVIYAIRNLTEDNSQNQDLIAKMEEQGLADASLLKKVGFEVEKKGEKLILKSTRDTPKP
Question: How did the binding (GST-Aurora B) turn out when B2 was run?
Answer: binds

Question: What about the binding (HA-Aurora B) of the same molecule?
Answer: binds
